Test results: publication PMC4559962
Positions count from the first letter of the chain named. No constants are given. Whether binding was seen depends on the method and setting. For some assays here: A result given as binding can be weak or reduced; the word gives no strength. For some assays here: Tags and fused reporters may be left off the sequences shown.

Experiments:
[1] = molecular target: SUMO (Smt3) (S. cerevisiae) [SUMO: Q12306]; experiment: pull-down; SUMO, SUMO-PA or Ub-PA on CNBr-activated Sepharose; purified HA-Wss1 proteins in solution; as Figure 1B but with 1% Triton X-100 (high stringency buffer); western blot with α-HA; o-phenanthroline (OPA) where indicated; both purified
[2] = molecular target: SUMO (Smt3) (S. cerevisiae) [SUMO: Q12306]; experiment: pull-down; SUMO cross-linked to CNBr-activated Sepharose; purified HA-Wss1 proteins in solution; 150 mM NaCl, 50 mM Tris pH 7.4, 0.1% Triton X-100, 1 hr at 4°C; western blot with α-HA; 10 mg/ml free SUMO or Ub used for competition; both purified
[3] = molecular target: HA-Wss1 N-terminus (truncated HA-Wss1 construct of Figure 5D) (S. cerevisiae); experiment: pull-down; purified HA-Wss1 (full length or truncated) on anti-HA beads with purified His6-Cdc48, GST-Cdc48 or HF-Doa1 (full length or truncated); western blot; both purified
[4] = molecular target: SUMO (Smt3) (S. cerevisiae) [SUMO: Q12306]; experiment: pull-down; SUMO or Ub affinity beads; purified HA-Wss1, His6-Cdc48 and HF-Doa1 mixed, or with HA-Wss1 or HF-Doa1 omitted; western blot; both purified

B1: HA-Wss1 (recombinant, wild type) (enzyme, UniProt P38838 1-269)
chain: MKTEGIKSPSAKYHDMAGSQRIPHKNPHIQKVAVLQSKPNKEDALNLIKEIAHKVSYLMKENHFKVTNLVEFYPRDQRLLGMNVNHGSKIMLRLRCSTDEFQFLPMECIMGTMLHELTHNLFGPHDKKFYNKLDELIGRQWVIEQRGLYDTFLGNGQRLGGRANLRSNRYPMTGISTNTGIVRKRGKGVKLGSLHPEGISSIDRGNSPRELAAFAAERRYRDDRWCGETKNNKDQIISDNISSSLEVVILDDDDEVLPGDTLIEVIDLT
In the case of B1, the binding [1] is reported as “no binding (only with 1% Triton X-100)” and the binding [2] is reported as “binds”.

B2: HA-Wss1 WLM* (HE115,116NK) (enzyme, UniProt P38838 1-269)
chain: B1 chain with H115N, E116K
In the case of B2, the binding [2] is reported as “binds”.

B3: HF-Doa1 PFU domain (truncated version) (domain or fragment, UniProt P36037 352-449)
chain: AHQFSNSSWKKVGDVVGAGATGNDKKIEFEGKTYDYVFDVDIEDGKPPLKLPINVSDNPYTAADNFLARYELPMSYRDQVVQFILKNTNGISLDQPND
B3 was tested, and the binding [3] was “binds”.

B4: his6-Flag (HF)-Doa1 (protein, UniProt P36037 1-715)
chain: MGYQLSATLKGHDQDVRDVVAVDDSKVASVSRDGTVRLWSKDDQWLGTVVYTGQGFLNSVCYDSEKELLLFGGKDTMINGVPLFATSGEDPLYTLIGHQGNVCSLSFQDGVVISGSWDKTAKVWKEGSLVYNLQAHNASVWDAKVVSFSENKFLTASADKTIKLWQNDKVIKTFSGIHNDVVRHLAVVDDGHFISCSNDGLIKLVDMHTGDVLRTYEGHESFVYCIKLLPNGDIVSCGEDRTVRIWSKENGSLKQVITLPAISIWSVDCMSNGDIIVGSSDNLVRIFSQEKSRWASEDEINELSTQVEKSTISSKTIEFDESKLSPYEILQSPGRKEGQIVVVKSPQGTIEAHQFSNSSWKKVGDVVGAGATGNDKKIEFEGKTYDYVFDVDIEDGKPPLKLPINVSDNPYTAADNFLARYELPMSYRDQVVQFILKNTNGISLDQPNDNASSSAVSPSKTSVMKVLPVKQYLIMENYNPDTIFNGIVKINSNEKTFDDEILAQIGGALHDIDESWELLLSFANTIRSNWEIKTPAYDIVRLIVKKLPYSSDIKDYIEEGLGNKNITLTMLTVRILVNCFNNENWGVKLLESNQVYKSIFETIDTEFSQASAKQSQNLAIAVSTLIFNYSALVTKGNSDLELLPIVADAINTKYGPLEEYQECEEAAYRLTVAYGNLATVEPTLRQFANSVTWLANIKRSYGNVPRFKDIFDDLS
For B4, the binding [4] was “binds weakly”.

B5: HA-Wss1 SIM1* (VV247,248AA) (enzyme, UniProt P38838 1-269)
chain: B1 chain with V247A, V248A
With B5 the binding [2] was “binds”.

B6: HA-Wss1 1–188 (N-terminal fragment, containing WLM and SHP) (domain or fragment, UniProt P38838 1-188)
chain: MKTEGIKSPSAKYHDMAGSQRIPHKNPHIQKVAVLQSKPNKEDALNLIKEIAHKVSYLMKENHFKVTNLVEFYPRDQRLLGMNVNHGSKIMLRLRCSTDEFQFLPMECIMGTMLHELTHNLFGPHDKKFYNKLDELIGRQWVIEQRGLYDTFLGNGQRLGGRANLRSNRYPMTGISTNTGIVRKRGKG
For B6, the binding [2] was “binds”.

B7: HA-Wss1 189–269 (C-terminal fragment, bearing the VIM and SIMs) (domain or fragment, UniProt P38838 189-269)
chain: VKLGSLHPEGISSIDRGNSPRELAAFAAERRYRDDRWCGETKNNKDQIISDNISSSLEVVILDDDDEVLPGDTLIEVIDLT
B7 was tested, and the binding [2] was “binds”.
